Values of other authors as cited in US11795144B2, “Inhibitors of RAC1 and uses thereof for treating cancers” (INSTITUT NATIONAL DE LA SANTE ET DE LA RECHERCHE MEDICALE …, priority 2017, dated 2023).
At least one compound was matched to its structure with a doubt left.

Conditions: cited from earlier work

## O=c1cc(CN2CCOCC2)occ1OCCCCCSc1ccnc2cc(C(F)(F)F)ccc12 [EHT 1864]
  Off-target effects: induce critical off-target effects

## CCN(CC)CCCC(C)Nc1nc(C)cc(Nc2ccc3nc(C)cc(N)c3c2)n1 (centres unmarked) [NSC23766, reference compound]
  Off-target effects: induce critical off-target effects
